Results taken from the supplement of paper PMC3334620.
Whole data set: some 33,000 sequences, median “E-score (-0.5 to 0.5)” near -0.0059, cut for the highest 2% near 0.26. Some of the results follow.

target: T1, Cin5 (UniProt P40917); assay: PBM E-score (8-mer binding enrichment) (E-score (-0.5 to 0.5)); higher = stronger / more preferred TF binding; details: protein concentration: 100 nM; construct: GST-full length
T1 sequence: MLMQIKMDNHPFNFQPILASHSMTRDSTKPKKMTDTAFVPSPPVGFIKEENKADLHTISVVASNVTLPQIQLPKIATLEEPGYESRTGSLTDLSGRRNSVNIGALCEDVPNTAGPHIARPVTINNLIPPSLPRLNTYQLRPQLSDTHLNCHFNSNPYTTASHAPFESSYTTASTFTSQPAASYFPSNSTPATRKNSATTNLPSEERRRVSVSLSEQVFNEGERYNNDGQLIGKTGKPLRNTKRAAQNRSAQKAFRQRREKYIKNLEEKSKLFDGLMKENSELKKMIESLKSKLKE
How it was run: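 Universal all-10-mer Agilent arrays, double-stranded by primer extension on fresh or once-stripped slides, were probed with about 100-200 nM GST-tagged yeast transcription factors made by PURExpress. Fluorescent anti-GST detected bound protein, and masliner normalised the scans. E-scores from the Universal PBM Analysis Suite were given to each ungapped eight-base word pooled with its reverse complement.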

Sequence | PBM E-score
CTCTCACC | -0.038
CGACATCG | -0.167
GTTATCTA | 0.131
ACAGCCCT | -0.343
GACCAGCA | 0.0449
AACACCGT | -0.138
TCCTTGAA | -0.126
AGGGTTCG | -0.169
TATTGACA | 0.0175
CCAGGTCC | -0.297
ACGGATAT | 0.128
CTGCGGAA | -0.0698
AGCGCGAA | 0.211
GATATTCA | 0.0685
AATTAGCT | 0.0688
GCCCCCCC | -0.384
GAATCCAA | 0.0873
GACGGGAC | -0.176
ACCCAGTG | -0.175
AAGGAAAC | -0.00746
ACACACTA | 0.15
AATGCATT | 0.259
ATCCAACG | -0.161
CAGGTTAC | 0.0316
AACCATGA | 0.206

Sequence | PBM E-score
CGGAGAGA | 0.0648
TAGCGATA | 0.137
AGGCGAAA | -0.0123
CAGGATGG | -0.109
CGGGCGAA | 0.0521
GGGCGAAC | 0.103
GTCGGTTA | -0.00349
CATCTTCC | 0.138
ACCGTCGT | 0.0964
ACATTGGC | -0.0322
CACCGGAC | -0.146
CTGGGCTA | 0.0109
CTATTTCA | 0.192
AGCGACGG | -0.0627
ACGAGCAG | 0.0391
CGCCAGGA | -0.0898
AAATCATA | 0.198
AAGCGAAC | 0.166
CGCGCTCA | 0.0166
ATACGACC | -0.159
ATCAACTA | 0.181
ACATACCC | 0.0456
GCAAAGGA | 0.142
ATATTCCC | 0.096
GAATTGCC | -0.0572

Sequence | PBM E-score
AAAGCAGA | 0.178
GACCAACC | -0.125
CAAGAGGA | -0.0705
CGCCAGCG | -0.226
ACATGATC | 0.129
TTGTGAAA | 0.0231
AAGGTTTA | -0.134
CACCCTGC | -0.122
ACGGAAGC | -0.0136
TACCTCAA | -0.028
GCATTCCC | -0.00639
AAGGGTCA | -0.0987
ATCTTCTA | 0.0464
CATAAATC | 0.254
GATTTGGA | 0.0797
GAGTAACA | 0.145
ATTATGCA | 0.118
AAAGCATG | -0.0464
CCGGGAAA | -0.104
GGGAGGGA | 0.014
GCTCTCCC | -0.233
AAAATATT | 0.243
AATGGGGC | -0.152
AGTGGACC | -0.231
ATGTCCGA | -0.0572

Sequence | PBM E-score
CATTAAAC | 0.0264
CGATTTAA | 0.0596
CTGTAACC | 0.119
CAGGGATG | -0.104
ACGATACC | 0.106
AAGCAGAT | 0.128
CGTGTCTC | -0.147
ATGTCACC | 0.133
CGTACACA | -0.014
TGCGATAA | 0.177
TGCAAACA | -0.135
ACTAGGCG | 0.127
CGAATCGA | 0.247
CGTTGCTC | 0.0247
ATCCCGCG | 0.258
GTTGTAGA | -0.112
CGAAAAGA | 0.234
ATGTAGAA | 0.0813
AAATCGCC | 0.0475
CACAGTTA | 0.173
CAATCAAG | -0.0309
ATGAGTTG | 0.113
GGGAGCTA | -0.259
CGTACGCC | -0.112
ATAAGGCA | 0.0574

Sequence | PBM E-score
CTCGTGGA | -0.0459
GAGCGTGA | -0.108
GAATGTCC | 0.00316
AAGGATCA | 0.0888
AACTTTAA | 0.134
TAGCTGGA | -0.225
ATGAAGAC | -0.0169
GAAAGCCA | -0.134
CTGTCACA | -0.136
AAAAATTA | 0.227
ATGCGTGC | 0.0188
CACATGTG | -0.00999
CATCAACA | 0.226
AGACTGGA | -0.0392
AATGTCCG | 0.0421
TGAGCTCA | 0.128
CCTGGCTA | -0.103
CACAAGGC | -0.157
CAGGAGTC | -0.0298
AGTTACTG | -0.0614
CCCTCAGG | -0.164
ATGATGTC | 0.233
ACTGAAAT | 0.0721
AGAAATGG | 0.087
CGATCCGC | -0.0224

5 records picked at random from the list so far:
Sequence | PBM E-score
AGAAATGG | 0.087
CACATGTG | -0.00999
AGACTGGA | -0.0392
CTCGTGGA | -0.0459
AACTTTAA | 0.134

Exported as tab-separated lines: part of the list above
Sequence	PBM E-score
GAGCGTGA	-0.108
GAATGTCC	0.00316

Additional entries

Sequence | PBM E-score
ACTCGGGA | 0.0269
AGTATTAC | 0.27
AACGTGGC | -0.0505
CACAGAGA | 0.116
AAGCCCAA | 0.0997
CAATCTAG | 0.063
CAACCGGA | 0.0554
CGGTAAAA | 0.129
GACCTGCC | -0.158
CCTTCCTC | -0.257
CACTAACG | -0.146
GCGTGACC | -0.225
GAATATTC | 0.265
AAACTTAA | 0.151
CCCGTTCC | 0.0137
AGTTAGGG | -0.0578
ATTACGAC | 0.232
GAGTCCCA | -0.0319
AGAACACC | -0.0127
CTACATTA | 0.0914
CACAAACA | 0.0601
ATCTAATG | -0.00795
CCATTAGA | -0.223
ACACAAGA | 0.106
AATCTTCC | 0.0185

Taken from above:
CACAAACA – PBM E-score: 0.0601
CGGTAAAA – PBM E-score: 0.129
AGTTAGGG – PBM E-score: -0.0578

Following part:

Sequence | PBM E-score
GAGATTCC | 0.162
AGAAGTCT | -0.127
ATGTTAGG | 0.0267
CACACGCG | 0.0438
CCTTCAGA | -0.128
CCGGACGA | 0.00947
AGACCGGG | -0.187
CCCGGGCA | -0.211
CTCGAATC | -0.185
CATGTCCG | -0.23
AGCGCTAG | -0.0283
CTACCTCA | -0.109
ACGCAAGG | -0.0379
CACCGGTC | -0.337
AGGGTTGA | -0.102
AAATCCTT | -0.0537
CAGTAGGA | -0.153
TACCGGCA | 0.0796
ATAACAGA | 0.142
AACAAAAC | 0.142
ACCGACTG | -0.0929
GCCGTGGA | -0.183
